No constants are given. Whether binding was seen depends on the method and setting. Binding seen in cells or lysates may run through a third protein. Some results given as binding are weak or reduced against the parent protein; the word gives no strength.

Protein sequences, listed by entry. Tags and fused reporters are not part of them. Residues count along the entry.
UniProt P78504, residues 34-1218: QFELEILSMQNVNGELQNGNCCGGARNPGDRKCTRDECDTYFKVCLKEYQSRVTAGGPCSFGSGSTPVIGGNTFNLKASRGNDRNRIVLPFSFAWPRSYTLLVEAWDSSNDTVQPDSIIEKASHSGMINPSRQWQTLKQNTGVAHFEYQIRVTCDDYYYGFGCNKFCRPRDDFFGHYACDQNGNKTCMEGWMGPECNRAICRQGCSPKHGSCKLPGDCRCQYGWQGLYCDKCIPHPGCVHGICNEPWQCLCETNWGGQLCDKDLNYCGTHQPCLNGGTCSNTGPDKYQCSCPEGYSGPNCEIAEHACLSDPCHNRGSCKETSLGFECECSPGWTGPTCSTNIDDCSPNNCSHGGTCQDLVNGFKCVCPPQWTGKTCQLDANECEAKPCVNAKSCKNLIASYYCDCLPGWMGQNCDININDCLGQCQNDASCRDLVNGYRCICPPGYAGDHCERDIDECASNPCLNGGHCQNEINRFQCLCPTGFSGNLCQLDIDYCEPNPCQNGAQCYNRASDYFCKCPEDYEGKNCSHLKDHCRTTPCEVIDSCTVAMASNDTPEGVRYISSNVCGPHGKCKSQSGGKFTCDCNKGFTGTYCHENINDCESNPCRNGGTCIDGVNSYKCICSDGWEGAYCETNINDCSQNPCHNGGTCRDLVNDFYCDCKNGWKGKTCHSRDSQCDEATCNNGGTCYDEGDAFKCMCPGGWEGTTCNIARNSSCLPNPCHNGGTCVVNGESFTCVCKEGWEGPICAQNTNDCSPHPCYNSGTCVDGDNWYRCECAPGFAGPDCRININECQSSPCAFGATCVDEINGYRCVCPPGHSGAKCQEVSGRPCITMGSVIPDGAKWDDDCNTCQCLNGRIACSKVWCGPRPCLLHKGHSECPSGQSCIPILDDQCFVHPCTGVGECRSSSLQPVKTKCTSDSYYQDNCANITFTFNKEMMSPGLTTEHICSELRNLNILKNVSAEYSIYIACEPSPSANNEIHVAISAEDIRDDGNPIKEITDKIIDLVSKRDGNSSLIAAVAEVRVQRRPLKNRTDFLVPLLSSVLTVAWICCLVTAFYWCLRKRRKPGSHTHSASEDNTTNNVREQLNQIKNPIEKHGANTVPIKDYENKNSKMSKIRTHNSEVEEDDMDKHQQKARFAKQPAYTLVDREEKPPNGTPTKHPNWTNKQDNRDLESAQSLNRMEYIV
UniProt P08670: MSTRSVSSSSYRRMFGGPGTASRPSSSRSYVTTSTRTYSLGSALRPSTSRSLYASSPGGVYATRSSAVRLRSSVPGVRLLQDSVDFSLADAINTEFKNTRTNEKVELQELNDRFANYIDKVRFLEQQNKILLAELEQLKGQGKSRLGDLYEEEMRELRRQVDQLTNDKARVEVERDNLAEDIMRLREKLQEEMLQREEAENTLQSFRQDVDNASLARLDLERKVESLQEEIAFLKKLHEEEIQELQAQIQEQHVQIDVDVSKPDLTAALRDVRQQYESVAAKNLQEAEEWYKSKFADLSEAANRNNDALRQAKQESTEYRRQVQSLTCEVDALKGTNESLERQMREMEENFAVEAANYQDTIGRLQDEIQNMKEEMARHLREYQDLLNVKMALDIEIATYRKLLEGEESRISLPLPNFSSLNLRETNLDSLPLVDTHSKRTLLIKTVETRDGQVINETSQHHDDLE

The record followed here is article PMC6712036.

Assay [1] concerns the target Jagged1 (human (endogenous in HUVEC)) (UniProt P78504). The experiment in a line: co-IP; Jagged1 immunoprecipitated from ECs under static and shear stress conditions; precipitate immunoblotted (phosphospecific vimentin antibodies for Fig. 4F). On the technique in general: In western blotting, separated proteins are transferred to a membrane and probed.
For assay [2] the target is unchanged. The experiment in a line: proximity ligation; in cells; details only in Supplementary Fig. 4A.

As to “vimentin phosphorylated at serine 38 (from UniProt P08670 1-466)”, in assay [1], the binding result is recorded as “binds”.
As to vimentin (from UniProt P08670 1-466), the binding result in assay [1] and in assay [2] was “binds” in each case.
